Values from PubChem BioAssay AID652243 (Drosophila RNAi Screening Center, 2013)

Aim: 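Fly regulators of androgen-dependent reporter output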 (primary screen)
Cells: Drosophila S2R+ cells
Reagents: long dsRNA against Drosophila genes
Time to read-out: 72 h (48 h, then 24 h hormone)
Treatment: synthetic androgen R1881 at 10 nM for 24 h
Detection: 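Firefly light from an androgen-responsive reporter and Renilla control light per well, raw and unnormalised, for each of two replicates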
Direction: firefly reporter light: higher = more light from androgen-responsive reporter; Renilla control light: higher = more constitutive control signal (cell number, transfection)
Hit rule: 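Hit when the log firefly-to-Renilla ratio dropped or increased by a fixed fold versus the mean of GFP or LacZ controls across duplicate plates; lowering cut given as 1.5 and as 3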
Calls: active = hit: reporter lowered or raised; inactive = no hit
The screen tested about 24,000 reagents; shown is a random part of those with a known target gene and a result. Over the whole deposit, 246 (1%) got an active call. 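Plates not normalised; calls are printed but the firefly/Renilla ratio behind them is not deposited; fold cut for lowering reported inconsistently.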 Raw values are not corrected between plates. The record does not give: the amount of reagent.

no.	target	DRSC id	firefly reporter light, replicate 1	firefly reporter light, replicate 2	Renilla control light, replicate 1	Renilla control light, replicate 2	Call
1	CG42237	DRSC19891	4.93e5	5.97e5	2.98e6	3.21e6	inactive
2	CG14402	DRSC02386	97756	1.18e5	1.24e6	8.83e5	inactive
3	mirr (mirror)	DRSC11369	1.29e5	85785	1.25e6	7.84e5	inactive
4	mirr (mirror)	DRSC25450	6.64e5	3.49e5	9.26e5	6.53e5	inactive
5	RpS27 (Ribosomal protein S27)	DRSC14244	2.00e5	2.12e5	1.37e6	1.32e6	inactive
6	RpS27 (Ribosomal protein S27)	DRSC29946	3.51e5	4.51e5	7.94e5	9.06e5	inactive
7	CG4101	DRSC10400	2.57e5	3.12e5	2.50e6	2.44e6	inactive
8	lncRNA:CR34024 (long non-coding RNA:CR34024)	DRSC38811	7.14e5	6.19e5	1.58e6	1.68e6	inactive
9	Tet (Ten-Eleven Translocation (TET) family protein)	DRSC08550	5.44e5	6.66e5	1.79e6	1.61e6	inactive
10	Tet (Ten-Eleven Translocation (TET) family protein)	DRSC08646	92833	90686	1.30e6	1.24e6	inactive
11	Tet (Ten-Eleven Translocation (TET) family protein)	DRSC26922	4.74e5	3.83e5	4.99e5	3.01e5	inactive
12	Tet (Ten-Eleven Translocation (TET) family protein)	DRSC28377	1.48e5	3.88e5	5.28e5	9.40e5	inactive
13	PGRP-SA (Peptidoglycan recognition protein SA)	DRSC19420	3.88e5	4.69e5	3.84e6	3.37e6	inactive
14	SmD1 (Small ribonucleoprotein particle protein SmD1)	DRSC09800	2.39e5	2.23e5	2.33e6	1.91e6	inactive
15	SmD1 (Small ribonucleoprotein particle protein SmD1)	DRSC28571	1.16e6	1.76e6	1.13e6	1.71e6	inactive

The list goes on, starting with the last 4 of the part before.
no.	target	DRSC id	firefly reporter light, replicate 1	firefly reporter light, replicate 2	Renilla control light, replicate 1	Renilla control light, replicate 2	Call
12	Tet (Ten-Eleven Translocation (TET) family protein)	DRSC28377	1.48e5	3.88e5	5.28e5	9.40e5	inactive
13	PGRP-SA (Peptidoglycan recognition protein SA)	DRSC19420	3.88e5	4.69e5	3.84e6	3.37e6	inactive
14	SmD1 (Small ribonucleoprotein particle protein SmD1)	DRSC09800	2.39e5	2.23e5	2.33e6	1.91e6	inactive
15	SmD1 (Small ribonucleoprotein particle protein SmD1)	DRSC28571	1.16e6	1.76e6	1.13e6	1.71e6	inactive
16	CR40354 (pseudo)	DRSC38777	7.23e5	7.55e5	1.65e6	1.73e6	inactive
17	CG33777	DRSC38851	1.00e6	8.69e5	2.40e6	2.10e6	inactive
18	CG13982	DRSC02314	95447	1.21e5	9.37e5	9.16e5	inactive
19	CG32444	DRSC11677	59637	75616	3.35e5	3.71e5	inactive
20	mts (microtubule star)	DRSC03574	5.09e5	7.16e5	2.67e6	2.35e6	active
21	mts (microtubule star)	DRSC36626					inactive
22	Task7 (TWIK-related acid-sensitive K[+] channel 7)	DRSC16477	1.28e5	1.51e5	2.90e6	2.67e6	inactive
23	Task7 (TWIK-related acid-sensitive K[+] channel 7)	DRSC26662	4.31e5	4.00e5	6.87e5	6.49e5	inactive
24	CG10164	DRSC14197	3.93e5	3.47e5	1.95e6	3.61e6	inactive
25	Lip4 (Lipase 4)	DRSC02930	1.79e5	1.77e5	9.92e5	1.28e6	inactive
26	Rme-8 (Receptor mediated endocytosis 8)	DRSC07054	8.71e5	7.86e5	3.07e6	2.81e6	inactive
27	GstE10 (Glutathione S transferase E10)	DRSC06671	71172	1.00e5	1.32e6	1.32e6	inactive
28	GstE10 (Glutathione S transferase E10)	DRSC28568	3.79e5	5.49e5	8.06e5	1.53e6	inactive
29	stops (slow termination of phototransduction)	DRSC15095	2.09e5	1.58e5	2.26e6	2.30e6	inactive
30	stops (slow termination of phototransduction)	DRSC15096	2.54e5	2.55e5	2.44e6	3.57e6	inactive
31	stops (slow termination of phototransduction)	DRSC15097	1.57e5	2.25e5	2.04e6	2.84e6	inactive
32	Sgf11 (SAGA associated factor 11kDa)	DRSC09987	2.54e5	1.67e5	2.66e6	1.44e6	inactive
33	CG15814	DRSC19730	1.26e5	95969	9.22e5	8.60e5	inactive
34	STUB1 (STIP1 homology and U-box containing protein 1)	DRSC03282	2.06e5	3.02e5	1.32e6	2.00e6	inactive
35	PGS1 (Phosphatidylglycerophosphate synthase 1)	DRSC16304	3.33e5	2.62e5	2.89e6	2.93e6	inactive
36	Adi1 (Acireductone dioxygenase 1)	DRSC10945	2.64e5	2.47e5	3.02e6	3.34e6	inactive
37	Adi1 (Acireductone dioxygenase 1)	DRSC21485	9.14e5	7.90e5	2.26e6	2.03e6	inactive
38	koi (klaroid)	DRSC04980	1.55e5	1.87e5	9.86e5	1.01e6	inactive
39	koi (klaroid)	DRSC04991	2.25e5	3.27e5	1.75e6	2.02e6	inactive
40	MAPk-Ak2 (MAP kinase activated protein-kinase-2)	DRSC18678	1.76e5	1.82e5	2.20e6	2.12e6	inactive
41	MAPk-Ak2 (MAP kinase activated protein-kinase-2)	DRSC29642	3.66e5	3.70e5	6.93e5	6.93e5	inactive
